Experimental data reported in PubChem BioAssay AID226 (DTP/NCI, 2004).
The list does not hold the whole screen: it gathers some chemical classes. Other doses and runs of a compound may be missing. T/C is the treated group as % of the vehicle group. Where survival is the endpoint, this PubChem deposit counts one and a half times the control or more as active, and values a quarter to a half above the control carry no call in these data; other NCI protocols may use other cut-offs. Some T/C values are marked as having no survivor count here; that says nothing about deaths at the dose. Schedule codes are those of the source, read here as Q, the interval in days (D) or hours (H), X, the number of doses.

Test system: B6C3F1 mice, intracerebral ependymoblastoma, median survival T/C
Test: NCI In Vivo Anticancer Drug Screen. Data for tumor model Ependymoblastoma (intracerebral) in B6C3F1 mice
Conditions: T/C endpoint: median survival time, schedule: Q01DX005 (ip), vehicle: saline with Tween-80, higher T/C = longer survival
Protocol: The antitumor activity of compounds was measured in mice bearing transplantable tumors. Survival or tumor size were measured and the results are expressed as the measurement made in the treated group (T) divided by the measurement made in the vehicle treated control group (C). The tumor model used in this assay is Ependymoblastoma (intracerebral) in B6C3F1 mice

## Cc1cc2nc(CN(CCCl)CCCl)[nH]c2cc1C
dose: 0.5 mg/kg/injection
  T/C: 97 % of control [survivor count not shown]
dose: 1.0 mg/kg/injection
  T/C: 103 % of control [survivor count not shown]
dose: 2.0 mg/kg/injection
  T/C: 102 % of control [survivor count not shown]
dose: 4.0 mg/kg/injection
  T/C: 103 % of control [survivor count not shown]
dose: 8.0 mg/kg/injection
  T/C: 123 % of control [survivor count not shown]
